# Assay results

The results are deposited in PubChem (AID1159506; NCATS, 2015).

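Luminescence from an EWS-FLI1 target-promoter (NR0B1) reporter, set against a CMV-promoter reporter, two days after silencing single genes in TC32 Ewing sarcoma cells.
Each siRNA was applied at 20 nM.
A z-score of the log NR0B1-over-CMV signal, less the median of siRNAs with the same seed; more negative means a stronger specific loss of the NR0B1 reporter.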

This is part of the screen; most of the strongest results are not listed here.
Sequences are the guide (antisense) strand, without overhang.

| # | siRNA | target gene | seed-corrected z-score |
|---|---|---|---|
| 1 | `UCAUGAGGCACCAAUGUGG` | CRLF3 | 0.04535 |
| 2 | `AGAAGUCUCACAUUUUAUG` | PPFIA4 | 0.6167 |
| 3 | `UCAUAAUCAACAAAGGCGG` | BCAS3 | 0.6673 |
| 4 | `UUAAUCCACUUAAAAAUAC` | RPL35A | 0.8835 |
| 5 | `UGAAUAUUGAGGGAGGGAG` | MECOM | -1.691 |
| 6 | `UAAAGAGCUUCAUAACUUC` | C4orf33 | -0.1571 |
| 7 | `UUAGUCGUAGAUGCAAGGC` | UTP20 | 0.1099 |
| 8 | `UAAAGAAAUCAUACCGCUG` | OR4S1 | -0.1291 |
| 9 | `UUUGGAAGCACAGUUCUCU` | FEM1A | 0.9104 |
| 10 | `AAUGUCAACAGGGUUCUCC` | TMEM132B | 0.1175 |
| 11 | `UCCUCGGUCAGCUUCAUUC` | NAPRT | -0.4692 |
| 12 | `UACCUUCCUAAACAUGUCC` | OR6S1 | -0.5814 |
| 13 | `UAUUGACCCACCGAACUCG` | SLC12A1 | 0.0674 |
| 14 | `UUCAUUAUCACUGAUGCAG` | LOC389405 | -0.6922 |
| 15 | `UCUGUGUCCACUGGUGUCC` | ANKRD34C-AS1 | 0.5346 |
| 16 | `UGUUAAGUAAAUGUGAGCC` | PPP1R3E | 0.3796 |
| 17 | `UUGAUGACAAUCCCUAAGG` | KREMEN1 | -0.4533 |
| 18 | `UCUGGGAUGUGGACGUAGC` | LSM10 | -0.8821 |
| 19 | `UUAGUUCUGGUUUACCGCC` | PCDHA12 | -0.1167 |
| 20 | `UCAAUGAACAGCGUGUUCC` | SERPINA12 | 1.06 |
| 21 | `UAUCUGAUAAAGUAACAGG` | LINC01600 | -0.5275 |
| 22 | `UCUCCUAACAGAUACUCCC` | PRSS35 | -0.3755 |
| 23 | `UCCUGGGUCAGCAUGUAGG` | MVP | 0.2084 |
| 24 | `UAAUCCACCCGAAUUCUUC` | TRA2A | 0.1706 |
| 25 | `UUUGCCCACGUGAUGAUAC` | PGRMC1 | -0.4573 |
| 26 | `AAUACGUGCAUACUCUUCC` | CEP83 | -0.1495 |
| 27 | `UCCUCUUCCGAUGAGAUGC` | MAP3K12 | -0.5693 |
| 28 | `UUAAAGAAACUCAUGAUGG` | BCAS1 | 0.5079 |
| 29 | `UUGUUGCAAAGUAACAAGC` | GDA | -0.4391 |
| 30 | `UAUCAAUUUAUUCAAGUGA` | NAGPA | 0.9005 |
| 31 | `UAAUUGCAUAGGUCCGGUG` | MS4A3 | -0.7692 |
| 32 | `UUCCCAGAAAGGUUCCUUG` | C19orf24 | -0.3898 |
| 33 | `UCACUAAUGCCUCUAAUUC` | CCDC110 | 0.9115 |
| 34 | `UGCGUUUCUGAAAUUGCCC` | CATSPER1 | 0.2361 |
| 35 | `UCCAUAGCUAAUGUUGUCC` | FAM81A | -1.482 |
| 36 | `ACUGGUUCCAGAAAACAGG` | DNHD1 | -0.9772 |
| 37 | `UUAAAGGUCAGGAUCUUCU` | MAPK4 | 1.02 |
| 38 | `UGUGUUGUCACCGAGGGUC` | VMO1 | -0.15 |
| 39 | `UCAUCUACCAUCUUCUGCU` | VIL1 | 0.6638 |
| 40 | `UAACCGAUUGGGACGGUUC` | VCP | 0.2871 |
| 41 | `UACGGGAAGAUCGUGAAUG` | MYO16 | -0.02648 |
| 42 | `UGAUCUAUAGCCUCGAUGU` | HTN3 | -0.8608 |
| 43 | `AAACGAAUUGGAGUAACUG` | ZNF266 | 0.3332 |
| 44 | `UAGUAGCCCUGGAACUUGC` | MGAT1 | -0.5228 |
| 45 | `AACCUUGUCCGGUUUCUGC` | GTF2F2P2 | -0.8627 |
| 46 | `AAAGAAAUAGUCCUCGACC` | NOS2 | 0.1268 |

For reference, 4 entries once more:

UUAGUCGUAGAUGCAAGGC against UTP20 read seed-corrected z-score 0.1099.
UUAAAGGUCAGGAUCUUCU against MAPK4 read seed-corrected z-score 1.02.
UGCGUUUCUGAAAUUGCCC against CATSPER1 read seed-corrected z-score 0.2361.
UAUCAAUUUAUUCAAGUGA against NAGPA read seed-corrected z-score 0.9005.